Data reported in paper PMC10743813.
These are yes or no findings as the source states them, for the method shown. Binding seen in cells or lysates may run through a third protein. These calls come from enrichment with a bait or labelling near it, and not all partners need be listed.

Protein sequences, listed by entry. Tags and fused reporters are not part of them. Lines headed by an entry give the natural chain unless they say otherwise; changes in a name come on top.
UniProt Q22KB8: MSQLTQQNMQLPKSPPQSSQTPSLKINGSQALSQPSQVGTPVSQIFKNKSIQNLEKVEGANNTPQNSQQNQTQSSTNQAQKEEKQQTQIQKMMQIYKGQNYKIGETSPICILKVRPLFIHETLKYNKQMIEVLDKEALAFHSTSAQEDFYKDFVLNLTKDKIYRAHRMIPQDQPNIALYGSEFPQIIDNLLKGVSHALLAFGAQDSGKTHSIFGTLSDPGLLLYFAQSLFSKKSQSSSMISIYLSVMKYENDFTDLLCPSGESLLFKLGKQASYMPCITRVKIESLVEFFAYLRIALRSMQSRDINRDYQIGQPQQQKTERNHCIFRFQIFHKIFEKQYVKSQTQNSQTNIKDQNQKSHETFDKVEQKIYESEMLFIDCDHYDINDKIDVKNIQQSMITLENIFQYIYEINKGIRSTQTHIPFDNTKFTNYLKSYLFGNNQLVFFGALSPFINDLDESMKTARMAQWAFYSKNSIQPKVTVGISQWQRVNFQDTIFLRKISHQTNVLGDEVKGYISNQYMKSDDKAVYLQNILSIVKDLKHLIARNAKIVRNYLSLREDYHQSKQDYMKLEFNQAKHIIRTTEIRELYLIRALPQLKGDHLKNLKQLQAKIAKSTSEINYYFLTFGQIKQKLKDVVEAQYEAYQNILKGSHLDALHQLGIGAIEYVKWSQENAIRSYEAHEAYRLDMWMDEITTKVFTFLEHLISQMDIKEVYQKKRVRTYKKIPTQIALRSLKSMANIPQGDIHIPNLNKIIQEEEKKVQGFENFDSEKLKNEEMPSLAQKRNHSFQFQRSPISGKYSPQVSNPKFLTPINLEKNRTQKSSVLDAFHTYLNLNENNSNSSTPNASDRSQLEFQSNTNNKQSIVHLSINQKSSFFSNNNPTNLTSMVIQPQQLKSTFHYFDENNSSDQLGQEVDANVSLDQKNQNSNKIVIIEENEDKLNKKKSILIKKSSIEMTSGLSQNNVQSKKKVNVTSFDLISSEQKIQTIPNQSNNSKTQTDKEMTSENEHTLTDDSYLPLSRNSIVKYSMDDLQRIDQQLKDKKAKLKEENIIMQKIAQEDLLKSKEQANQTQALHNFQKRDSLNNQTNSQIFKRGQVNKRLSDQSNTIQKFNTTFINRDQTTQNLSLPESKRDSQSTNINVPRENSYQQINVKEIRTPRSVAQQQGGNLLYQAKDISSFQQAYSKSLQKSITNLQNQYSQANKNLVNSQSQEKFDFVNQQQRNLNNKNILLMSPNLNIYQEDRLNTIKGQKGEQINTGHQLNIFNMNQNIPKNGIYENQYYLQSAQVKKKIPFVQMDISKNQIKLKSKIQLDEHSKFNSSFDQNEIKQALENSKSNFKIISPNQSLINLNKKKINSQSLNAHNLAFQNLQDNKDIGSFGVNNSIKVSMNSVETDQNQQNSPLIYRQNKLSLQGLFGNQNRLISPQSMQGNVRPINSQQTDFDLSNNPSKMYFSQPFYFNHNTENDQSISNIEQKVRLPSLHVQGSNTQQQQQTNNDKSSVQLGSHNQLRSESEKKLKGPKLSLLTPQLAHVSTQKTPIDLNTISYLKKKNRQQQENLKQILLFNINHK
UniProt Q23TU2: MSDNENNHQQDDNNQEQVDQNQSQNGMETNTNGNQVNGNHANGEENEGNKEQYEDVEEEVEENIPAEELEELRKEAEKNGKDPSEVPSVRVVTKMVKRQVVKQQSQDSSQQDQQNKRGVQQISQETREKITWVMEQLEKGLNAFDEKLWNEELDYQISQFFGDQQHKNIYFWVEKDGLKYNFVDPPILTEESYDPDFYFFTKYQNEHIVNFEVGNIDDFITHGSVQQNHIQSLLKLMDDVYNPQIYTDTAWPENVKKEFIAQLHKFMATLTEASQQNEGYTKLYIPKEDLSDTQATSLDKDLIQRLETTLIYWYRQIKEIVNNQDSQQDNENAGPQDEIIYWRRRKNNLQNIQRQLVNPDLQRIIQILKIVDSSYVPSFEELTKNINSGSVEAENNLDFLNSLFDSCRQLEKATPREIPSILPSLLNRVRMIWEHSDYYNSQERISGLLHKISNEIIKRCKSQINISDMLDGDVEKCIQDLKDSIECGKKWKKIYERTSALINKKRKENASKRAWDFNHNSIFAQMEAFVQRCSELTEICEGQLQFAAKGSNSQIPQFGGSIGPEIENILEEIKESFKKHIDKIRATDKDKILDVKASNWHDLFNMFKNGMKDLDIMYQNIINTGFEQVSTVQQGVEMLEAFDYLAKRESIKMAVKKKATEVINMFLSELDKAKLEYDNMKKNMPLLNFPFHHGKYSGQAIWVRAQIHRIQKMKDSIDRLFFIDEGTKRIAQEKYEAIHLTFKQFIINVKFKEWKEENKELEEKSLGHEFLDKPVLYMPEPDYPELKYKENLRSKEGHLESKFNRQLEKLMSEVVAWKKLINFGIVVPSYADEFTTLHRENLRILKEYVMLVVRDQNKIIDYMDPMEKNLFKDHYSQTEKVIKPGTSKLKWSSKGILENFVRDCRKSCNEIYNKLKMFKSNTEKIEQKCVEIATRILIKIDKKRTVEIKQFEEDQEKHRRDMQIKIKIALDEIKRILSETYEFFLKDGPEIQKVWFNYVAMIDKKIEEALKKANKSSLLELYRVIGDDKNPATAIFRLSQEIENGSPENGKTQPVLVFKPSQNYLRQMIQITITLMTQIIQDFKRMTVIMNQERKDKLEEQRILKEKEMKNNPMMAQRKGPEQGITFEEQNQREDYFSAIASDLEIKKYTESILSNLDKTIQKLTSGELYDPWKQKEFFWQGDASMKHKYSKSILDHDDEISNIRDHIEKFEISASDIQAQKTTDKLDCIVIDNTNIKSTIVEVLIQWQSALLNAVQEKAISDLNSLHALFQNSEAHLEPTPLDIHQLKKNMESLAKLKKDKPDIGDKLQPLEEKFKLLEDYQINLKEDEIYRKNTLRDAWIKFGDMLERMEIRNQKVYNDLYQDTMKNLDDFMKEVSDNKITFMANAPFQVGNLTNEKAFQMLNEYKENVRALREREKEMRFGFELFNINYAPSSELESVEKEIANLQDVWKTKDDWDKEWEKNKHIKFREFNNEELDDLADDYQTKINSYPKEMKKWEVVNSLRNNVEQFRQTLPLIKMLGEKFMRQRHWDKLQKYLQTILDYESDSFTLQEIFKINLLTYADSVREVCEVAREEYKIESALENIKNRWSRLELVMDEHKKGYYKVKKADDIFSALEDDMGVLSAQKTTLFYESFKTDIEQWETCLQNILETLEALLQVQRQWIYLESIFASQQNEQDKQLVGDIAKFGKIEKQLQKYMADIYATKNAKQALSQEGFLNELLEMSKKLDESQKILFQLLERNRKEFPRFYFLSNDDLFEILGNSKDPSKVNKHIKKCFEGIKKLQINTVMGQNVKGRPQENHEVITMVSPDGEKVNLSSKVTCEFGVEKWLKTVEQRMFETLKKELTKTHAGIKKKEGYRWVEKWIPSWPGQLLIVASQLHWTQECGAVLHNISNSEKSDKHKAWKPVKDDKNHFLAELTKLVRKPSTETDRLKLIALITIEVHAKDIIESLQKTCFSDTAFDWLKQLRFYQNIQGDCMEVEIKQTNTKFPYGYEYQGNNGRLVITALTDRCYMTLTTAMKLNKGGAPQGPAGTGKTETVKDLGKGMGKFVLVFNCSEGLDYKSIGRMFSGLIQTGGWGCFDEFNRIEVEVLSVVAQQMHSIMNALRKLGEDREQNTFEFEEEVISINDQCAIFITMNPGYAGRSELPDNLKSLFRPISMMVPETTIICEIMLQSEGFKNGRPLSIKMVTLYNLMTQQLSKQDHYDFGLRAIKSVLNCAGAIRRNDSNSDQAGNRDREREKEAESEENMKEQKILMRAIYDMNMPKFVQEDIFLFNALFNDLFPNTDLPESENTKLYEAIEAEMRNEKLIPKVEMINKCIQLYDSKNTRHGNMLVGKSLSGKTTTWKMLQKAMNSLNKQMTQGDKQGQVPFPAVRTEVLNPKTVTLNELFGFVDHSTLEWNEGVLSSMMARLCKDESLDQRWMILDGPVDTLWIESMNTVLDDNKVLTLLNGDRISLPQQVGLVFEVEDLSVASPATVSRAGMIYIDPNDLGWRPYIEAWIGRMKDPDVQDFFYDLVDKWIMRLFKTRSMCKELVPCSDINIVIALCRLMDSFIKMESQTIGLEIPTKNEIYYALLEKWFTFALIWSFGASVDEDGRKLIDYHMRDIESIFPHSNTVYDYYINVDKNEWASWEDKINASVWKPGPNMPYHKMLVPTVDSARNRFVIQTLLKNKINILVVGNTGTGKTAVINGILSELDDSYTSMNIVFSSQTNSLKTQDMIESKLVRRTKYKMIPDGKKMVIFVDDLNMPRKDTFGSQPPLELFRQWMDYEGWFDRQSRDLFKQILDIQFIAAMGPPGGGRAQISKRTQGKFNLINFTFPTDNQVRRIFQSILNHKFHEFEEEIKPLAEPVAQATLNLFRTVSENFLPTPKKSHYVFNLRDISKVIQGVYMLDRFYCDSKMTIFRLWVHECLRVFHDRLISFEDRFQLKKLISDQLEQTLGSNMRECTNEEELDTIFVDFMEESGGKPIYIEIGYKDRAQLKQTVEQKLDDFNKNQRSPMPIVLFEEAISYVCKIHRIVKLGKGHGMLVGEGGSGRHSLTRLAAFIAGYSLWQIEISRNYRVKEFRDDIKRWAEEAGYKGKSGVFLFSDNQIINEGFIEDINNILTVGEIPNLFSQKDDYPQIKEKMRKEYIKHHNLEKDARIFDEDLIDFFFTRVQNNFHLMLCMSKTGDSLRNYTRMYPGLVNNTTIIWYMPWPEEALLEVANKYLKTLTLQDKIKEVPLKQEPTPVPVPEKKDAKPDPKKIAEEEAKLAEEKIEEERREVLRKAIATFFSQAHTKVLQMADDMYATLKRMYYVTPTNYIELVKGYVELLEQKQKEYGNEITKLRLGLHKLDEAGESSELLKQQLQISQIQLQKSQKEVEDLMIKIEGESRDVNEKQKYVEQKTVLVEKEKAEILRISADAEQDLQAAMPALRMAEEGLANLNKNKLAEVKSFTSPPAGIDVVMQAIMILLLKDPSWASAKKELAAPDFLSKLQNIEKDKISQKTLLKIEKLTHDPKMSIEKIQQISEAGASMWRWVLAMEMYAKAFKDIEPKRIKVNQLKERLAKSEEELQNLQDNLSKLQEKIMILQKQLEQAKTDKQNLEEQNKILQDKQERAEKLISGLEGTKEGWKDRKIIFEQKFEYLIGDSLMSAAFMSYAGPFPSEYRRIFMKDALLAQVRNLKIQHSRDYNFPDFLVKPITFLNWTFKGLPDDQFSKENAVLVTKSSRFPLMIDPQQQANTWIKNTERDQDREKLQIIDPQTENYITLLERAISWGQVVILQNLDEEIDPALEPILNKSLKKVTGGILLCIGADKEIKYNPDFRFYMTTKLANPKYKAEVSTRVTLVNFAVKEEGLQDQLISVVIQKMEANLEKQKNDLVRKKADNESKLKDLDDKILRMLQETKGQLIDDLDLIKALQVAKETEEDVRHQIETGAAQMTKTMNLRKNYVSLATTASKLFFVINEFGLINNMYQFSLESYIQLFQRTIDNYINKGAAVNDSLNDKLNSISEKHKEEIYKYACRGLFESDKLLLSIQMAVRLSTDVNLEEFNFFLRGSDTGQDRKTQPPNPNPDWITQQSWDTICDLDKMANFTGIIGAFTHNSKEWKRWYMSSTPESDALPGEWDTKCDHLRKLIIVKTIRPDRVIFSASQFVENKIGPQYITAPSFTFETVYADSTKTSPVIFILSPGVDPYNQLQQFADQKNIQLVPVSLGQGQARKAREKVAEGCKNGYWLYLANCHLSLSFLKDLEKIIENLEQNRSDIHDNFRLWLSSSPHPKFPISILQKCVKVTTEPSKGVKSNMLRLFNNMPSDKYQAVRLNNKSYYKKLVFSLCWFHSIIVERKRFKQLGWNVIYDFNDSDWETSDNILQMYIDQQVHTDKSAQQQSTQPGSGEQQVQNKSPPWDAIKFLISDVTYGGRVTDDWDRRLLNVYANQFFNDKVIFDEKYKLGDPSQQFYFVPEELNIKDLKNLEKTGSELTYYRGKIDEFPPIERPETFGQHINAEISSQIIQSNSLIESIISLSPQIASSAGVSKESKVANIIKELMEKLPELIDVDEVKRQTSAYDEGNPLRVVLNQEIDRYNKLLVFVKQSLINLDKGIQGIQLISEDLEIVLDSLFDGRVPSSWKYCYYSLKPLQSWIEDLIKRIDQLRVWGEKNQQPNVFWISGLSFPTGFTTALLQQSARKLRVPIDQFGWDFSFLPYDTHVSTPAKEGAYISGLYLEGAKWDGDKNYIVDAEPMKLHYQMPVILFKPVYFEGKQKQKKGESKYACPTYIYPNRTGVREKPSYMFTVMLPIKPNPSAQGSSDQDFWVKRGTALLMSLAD

B1: TTHERM_00387080 (protein, UniProt Q23RI2 1-1074)
chain: MHGYFILIIILYLFIYLLIFSVLNNFLNQKMISVDSLLFLANLNQISFQDFQQFIDKKQNKYKKKVNSNLMSRVYNNLEVGDSIENTIPTGFQIRKEQLSDLFQPDSIREGQSLKQIEDIGNVEGLLKILKTHQKKGIDTSDTSISDRIQAFGQNENITKPPKTFFELVMECLEDDVLRILCVACFVSLVIGCIKQGIAEGWIDGIGIFIAVFIIVTITSVNNYMKDKQFRKLNAQVAQRDVGVIRNGETVHISIYSLLVGDIMHIETGEVFPVDGFLIQGSNLVCDESSITGESDPIKKYSIGEHAKNPQPFLISGSKVIEGSGLMVVLAVGQMSRVGKQQALMNEEEEEEKKTPLQEKLDVFVEKIGNIGFKWAFITVLCMILNLLYTIYSSNDLKLLSIDTLSEIVDFIIVGITVVVIAVPEGLPLAVTLSLAYAVGKMKDENNLVRNLISCEIMGGADTICSDKTGTLTENKMKVKKMYALEEVHSEFERQSFDQNFVNILTEGISVNSNAFPKIDDGKFEYNGNKTECALLELAYKFQVNYRDFRPSDNIIKVIPFSSARKRMTTVCRSKKGVQGTLRVYTKGAPEILIEQCSRFVNKNGQIQQISQQFLQKFQDIQQKFSNECLRTLLLAYKEIPYMDADQLPEENQIEQDFIVLGMVGIQDPLRRGIRDSVRVCSNAGVTVRMVTGDNKETAIAISKEAGIISQDYSTSDGGYTVMEGKQFRELVGGLQEIRGEDGKIQRYEVGNIDAFKDIIQDLRVLARSSPEDKFLLVTGLQKCDSVVAVTGDGTNDAPALKKADIGFAMGISGTEVAKEAAGIILIDDNFSSTITAIKWGRNIFDCIRKFLQFQLTINVVALFMAFLGGLVFRESPFNTIQILWVNLMQDTLAALALATEPPNDELLQRKPVKRTDAIVTPNMWKGIILQSLYQIVVLCIILFNGPSLFGVDNGIQNKDWTEENGVHLTMFFNIFVFLSVFNEINCRKLKSSEINVFQGFFNNPLFLFIIVSTIFVQIIMVQLGGRVAKCSPLSLEQNIICILVGASSVAAGIVIKLLPSSLDRLLNHTNPFQ
B2: TTHERM_00463420 (protein, UniProt Q23PU1 1-859)
chain: MLRSEKMSLHCLLMPRESAWEVLNDLGTLDKVHFVDCEEDVPQFNRPFYQQVRRCDESLQKLLWIENEMQKFYNFYNQVIKSNNQVNIDYCGDLASFHEYLKKDVESRRINEQAYFLQIENEINQKHKFLEQLIHNFNSVITYRNQLVEKKHVLTEASRVLNVNQLNQDNQIPNPDRVSLNFLAGVINADDEVRFHKSAFRVSRGNIWKHFKQIDKSMQRDGYKLLNIKGQRDHDTSELTDPYNSVQKTIFILAYASGQNSSLDRKLRRICEGFHADVFNIQYSNISKDLKETEEQIRNQNLTVQLSEKSINEYFDFYQKSIKLQSGDQVVDVCSYIEYVRLFLHKEKTIQHNLNYLVQSSQTFCKGLIWVPEEDEGIVQRRVEQLTQKKSNSVQVAQLYKLSNYTIDPPTKFKSNDFTIPFQEIVNTYGIPRYREINPALFAISTFPYLFGMMFGDIGHGALLFTIGLYLMSCKIDPKRPSAMDGLVQARYLITLMGLFALYNGLIYNDFMSLPLNLFGSCYLLADKNVVLTHKTSKQCVYPFGIDPVWGVAKNKLSVYNSLKMKTSVVFGVFQMLIGIFLKGLNAINNISFVDFFFEFIPQVVFMCCTFGYMVFLIFMKWMTDYSQNTSKAPSILTYMLDLGLSGGGVGHQQELYKGQGVDQPYLLIAALISVPIMLLAKPIIHQMQHNSHQQHQNAEGFVPFQDDIEENRRQADNFIEKGLKLHKNEKPHEFSEEFVHQVIETIEFVLGSISHTASYLRLWALSLAHSQLAEVFFEKTLKGQIESGSTIGILVGFIVFAMITFAVLMCMDVMECFLHTLRLHWVEFQSKFYKADGYLFKPFSVNNVLSVAAVEKRY
B3: TTHERM_00295120 (protein, UniProt I7LUE5 1-774)
chain: MQEDVDQERLLDQARQKVKEQAYFMKKALDQVNLRDGLRHASTMLEELGVREQVQLNPKNYYIVFMQIFDELRTLEQYFKEEYRRGRKMMDLYESVQHATKLIPRLYLLITVGSVYIQTHEVGAKEILLDLLEMIKAVQHPTRGLFLRYYFLKMCKDRLPDKDSEYFGEGGDVDDCINIITRNLNEMNKLWIRMSGKSRDKPRREKERVDLKITVGENIHRLSSLEGVNSEIYQTTVLPKLLDLIVSSKDAISQNYLIDCVISCFPDEYHLITLHDILGVCTTQLEPKVDIKSIFISLMDRLAEYALRSEDVQATFNSDNHIYSMFKNNIDNLVERSSSTEFKNVLDLMVAFLKFSLRCYSSNGDYVNQILKSCVKICEKQHEQDFQDDCLKNIVKFLTMPLETMSLTILTMDEYPNLMKYLPFSKRRQVAQKITQAVVSLKRNINDQKIAEQLVLFIHPLLVTEKDYIEVSQNDFEEEQNLVCKMLHLVHHDDAQEYWNILRLFFDNFQKGEIKRQKFTYPTMFYALAKFTRSVYEKNQQNEVLNYNNIFEIMKQLIETLAQEYHSLALKLYIQFILIINEFDHEKTLDEFTYDIATTALTIYQDDLGDADIKLQAIQVISGALNKVSCLSEENYDTLSSNTTQYSAKLLKKQDQVLSILNCTHLFHGELIKDEESVKKCLKKAIKIAQTLLKTQNKSINLYIYILNRYFVFWNYVQFDAAEVQELINIINEKIGTLEKSAETDALQKYWRNTVQYIKSKQEQNIAGFAELHV
B4: TTHERM_01345820 (protein, UniProt Q229R4 1-1227)
chain: MIVKFETKSKRVKGLAFHPIRPWLLSALHTGQIQLWDYRLKTLLDEFVDHDGPVRGIDFHSSQPLFVSGGDDFKIRVWNYKLKKCLFIMKGHLDYIRTVQFHKELPWIVSASDDQTIRIWNWQSRSMIAILTGHSHYVMCAKFHPTQDLIVSCSLDQTLRIWDFSATRKKSMQSNSKTQTQNFGANEVEVHSVLETHERGVNWCDFHPDMNLIVSGADDRKIKLWKFNESRAWDHDSLYGHKNNVSSVVFHPKLNLIISNSEDKTTKVWDLNRRVAISTFTRDNDRFWVIAVHPQNLTFASGCDNGFYVFSLFSDKMPQSLPDPNCLLFGFRKQIKAYNFVKKSITVSKEFESQATIIQENINFFQQNPFETSQAQFLVGTDTKEKSIYKFYLLTYNTNNYDDLQKEREDCKTFTGKGAVFVSKNKIARIKENRTVEIYNFDLSTQSNPISDITDVNRVFSGPIGNVIFSTDESLILYNITTKKEIGKIPMKAEYKVKNAYWNKNNTMVALVAKKSIHVMNKNLGKICTINEKFNVKSLIWHGNVLIYTTINHLKFGLLNGDSGIIKCIDENLKAVKVEGNTFFGINPSAEIVTININTEELQLKKSLFDKNWEKIKYYMDANNKLGNSVISYLYKKNYSGIALNLVNDPKTKFSLAINSGNLEQAFKCAKELKDKEIWAKLAQEAIRQGDHQIIEIAYQNIKEYEKLSFLYTVCGKTEYLKKMLEISQKRGDIMSRFSNSLYLGNIEERIKILADSNQLALAYLMAVAHNKSEYAETLKKGMEQVPDIQQLKQFKMSALVPPKPLVKIIESSPQAQRKWPQNHIPEEYMVVLADQDNQEQQTNLPENAVQQNIVDEEPAAIDDDAKKQDNAKPNFANQVDDEEFEDAGDVWPDVELPDDVDIPDSGPQATEQTPITSNFIQPESKLLKTVKQSLIPSNHIIFGFFENAFSFWKKQLGIYNFDPLLSEAIKVATSSLTVISSIPYVQSSISPIHQDNKPFVCRNLNSLEILLKKAQRFTTEGKFQESENAFYDILHSIPFVKLQKESEINDIKSLIQICFNYIMAMKCELRKNQEQDRTFELQCYMAICNLKPIHRVLTLKQAMSAAYKNKNFIYCSYFAKKLIRVVEANPNAAKPEVLQSAQKFLRACETQGTNAQQIVFDDAWLYDDDATYNIDPSTMKINKNVKEAAKCPYCTAKVDQSLNETICPLCNLGKIGAQVIGIKLDQ

Biological target: Msh6^Tt-3HA (T. thermophila) (UniProt Q23K54)
Assay: affinity purification with mass spectrometry; 3 h of conjugation; cells lysed by sonication on ice in PBS; Msh6^Tt-3HA precipitated by its HA tag (Pierce HA-Tagged Magnetic IP/Co-IP kit), washes TBS and TBS-T; LC-MS/MS, MaxQuant iBAQ; WT lysate without HA tag as blank control; hits: iBAQ WT/iBAQ Msh6^Tt-3HA <= 0.05

Molecule | binding
TTHERM_00101160 (from UniProt Q234T3 1-2004) | binds
Tpa1 (from UniProt Q245Y8) | binds
TTHERM_00313630 (from UniProt Q22KB8 1-1566) | binds
Drh34 (from UniProt I7MM90) | binds
Dmc1 (from UniProt I7MAA0) | binds
Dyh7 (from UniProt Q23TU2) | binds
DYH3 dynein heavy chain outer arm protein (from UniProt Q22A67 1-4620) | binds
replication factor C subunit Rfc2 (from UniProt Q245Y3) | binds
B1 | binds
B2 | binds
B3 | binds
B4 | binds
